These are yes or no findings as the source states them, for the method shown. Some binding calls cover weakened binding; strength is not graded here. Tags and fused reporters may be left off the sequences shown.
Molecular target: myc-tagged human Mid51(R169W) (human) (UniProt Q9NQG6)
Test: SDS-resistant oligomers on SDS-PAGE immunoblot of the immunoprecipitate; anti-myc immunoprecipitate of the Mid51/Fis1 complex from HeLa lysate heated 20 min at 55°C, 4-20% Tris-Glycine SDS-PAGE; SDS-resistant complexes detected with anti-myc (Mid51 species) or anti-Flag (Fis1 species); species normalized to monomer

binding: binds
B1: myc-tagged human Mid51(R169W) (protein, UniProt Q9NQG6 1-463)
chain: MAGAGERKGKKDDNGIGTAIDFVLSNARLVLGVGGAAMLGIATLAVKRMYDRAISAPTSPTRLSHSGKRSWEEPNWMGSPRLLNRDMKTGLSRSLQTLPTDSSTFDTDTFCPPRPKPVARKGQVDLKKSRLRMSLQEKLLTYYRNRAAIPAGEQARAKQAAVDICAELWSFLRAKLPDMPLRDMYLSGSLYDDLQVVTADHIQLIVPLVLEQNLWSCIPGEDTIMNVPGFFLVRRENPEYFPRGSSYWDRCVVGGYLSPKTVADTFEKVVAGSINWPAIGSLLDYVIRPAPPPEALTLEVQYERDKHLFIDFLPSVTLGDTVLVAKPHRLAQYDNLWRLSLRPAETARLRALDQADSGCRSLCLKILKAICKSTPALGHLTASQLTNVILHLAQEEADWSPDMLADRFLQALRGLISYLEAGVLPSALNPKVNLFAELTPEEIDELGYTLYCSLSEPEVLLQT
